Measurements from PMC8260596.
No constants are given. Whether binding was seen depends on the method and setting. Some results given as binding are weak or reduced against the parent protein; the word gives no strength.

Sequences of proteins named here, by UniProt entry; tags and fusion partners are left off.
UniProt P46821: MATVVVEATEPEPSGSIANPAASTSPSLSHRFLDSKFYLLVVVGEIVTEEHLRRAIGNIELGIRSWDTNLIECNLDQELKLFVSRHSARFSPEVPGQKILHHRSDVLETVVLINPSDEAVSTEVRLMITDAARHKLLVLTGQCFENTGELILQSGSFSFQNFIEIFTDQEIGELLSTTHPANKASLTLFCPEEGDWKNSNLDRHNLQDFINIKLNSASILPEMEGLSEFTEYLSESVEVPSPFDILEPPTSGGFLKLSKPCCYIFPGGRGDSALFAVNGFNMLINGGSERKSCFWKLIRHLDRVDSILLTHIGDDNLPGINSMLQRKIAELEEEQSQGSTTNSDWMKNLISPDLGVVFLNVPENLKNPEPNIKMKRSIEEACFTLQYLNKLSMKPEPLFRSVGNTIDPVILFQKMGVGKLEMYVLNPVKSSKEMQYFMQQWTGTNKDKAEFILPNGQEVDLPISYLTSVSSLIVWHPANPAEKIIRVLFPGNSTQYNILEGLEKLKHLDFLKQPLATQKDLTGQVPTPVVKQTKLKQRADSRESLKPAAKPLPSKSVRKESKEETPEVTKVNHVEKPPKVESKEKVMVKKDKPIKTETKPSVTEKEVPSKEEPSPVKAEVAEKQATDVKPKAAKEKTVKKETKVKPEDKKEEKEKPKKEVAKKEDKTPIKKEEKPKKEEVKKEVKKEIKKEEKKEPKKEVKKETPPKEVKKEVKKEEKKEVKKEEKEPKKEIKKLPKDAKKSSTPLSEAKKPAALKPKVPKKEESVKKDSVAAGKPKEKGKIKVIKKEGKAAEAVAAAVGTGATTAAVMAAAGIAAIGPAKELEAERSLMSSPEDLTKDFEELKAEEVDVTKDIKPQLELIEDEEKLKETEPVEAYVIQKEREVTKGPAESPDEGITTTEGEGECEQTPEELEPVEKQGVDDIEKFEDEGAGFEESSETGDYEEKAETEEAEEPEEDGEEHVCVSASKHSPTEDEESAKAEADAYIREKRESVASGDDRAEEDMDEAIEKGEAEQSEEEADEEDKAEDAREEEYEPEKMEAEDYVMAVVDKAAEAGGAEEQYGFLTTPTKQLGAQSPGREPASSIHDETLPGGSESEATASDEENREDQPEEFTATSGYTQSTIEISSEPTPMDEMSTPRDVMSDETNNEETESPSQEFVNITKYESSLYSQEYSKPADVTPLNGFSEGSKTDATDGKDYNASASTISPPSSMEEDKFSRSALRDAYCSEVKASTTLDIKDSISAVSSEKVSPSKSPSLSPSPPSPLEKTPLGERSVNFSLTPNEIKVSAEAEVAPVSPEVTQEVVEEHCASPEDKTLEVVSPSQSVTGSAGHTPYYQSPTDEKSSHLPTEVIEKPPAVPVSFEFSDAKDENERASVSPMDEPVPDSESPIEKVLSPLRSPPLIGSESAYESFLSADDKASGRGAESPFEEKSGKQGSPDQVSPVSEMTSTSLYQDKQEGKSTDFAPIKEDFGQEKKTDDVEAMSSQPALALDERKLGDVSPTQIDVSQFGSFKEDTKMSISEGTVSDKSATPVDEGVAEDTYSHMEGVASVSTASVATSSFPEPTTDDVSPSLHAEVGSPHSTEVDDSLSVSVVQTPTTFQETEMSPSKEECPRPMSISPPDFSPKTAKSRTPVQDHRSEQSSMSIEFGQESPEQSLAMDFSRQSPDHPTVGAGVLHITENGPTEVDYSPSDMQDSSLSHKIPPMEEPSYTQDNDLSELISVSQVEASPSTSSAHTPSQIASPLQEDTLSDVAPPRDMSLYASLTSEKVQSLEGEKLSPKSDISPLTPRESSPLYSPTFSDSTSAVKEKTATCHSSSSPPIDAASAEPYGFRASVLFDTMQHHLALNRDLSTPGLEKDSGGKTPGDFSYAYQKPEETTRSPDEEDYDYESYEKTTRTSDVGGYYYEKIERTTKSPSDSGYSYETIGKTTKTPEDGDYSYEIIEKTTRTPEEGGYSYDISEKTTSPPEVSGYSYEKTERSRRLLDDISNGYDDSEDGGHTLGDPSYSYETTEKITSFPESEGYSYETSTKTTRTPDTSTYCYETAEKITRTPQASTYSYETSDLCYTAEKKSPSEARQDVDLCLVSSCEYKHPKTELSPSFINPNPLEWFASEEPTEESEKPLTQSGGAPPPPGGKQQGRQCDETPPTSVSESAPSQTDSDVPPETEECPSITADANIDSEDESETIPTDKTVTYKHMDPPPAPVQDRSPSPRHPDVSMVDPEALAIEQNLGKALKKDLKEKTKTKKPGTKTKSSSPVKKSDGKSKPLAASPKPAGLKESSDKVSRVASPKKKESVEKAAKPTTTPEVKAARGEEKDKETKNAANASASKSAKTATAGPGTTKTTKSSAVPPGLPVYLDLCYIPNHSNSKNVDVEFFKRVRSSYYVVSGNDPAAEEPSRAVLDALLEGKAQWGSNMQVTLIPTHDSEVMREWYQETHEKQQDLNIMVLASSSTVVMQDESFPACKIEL
UniProt P04406: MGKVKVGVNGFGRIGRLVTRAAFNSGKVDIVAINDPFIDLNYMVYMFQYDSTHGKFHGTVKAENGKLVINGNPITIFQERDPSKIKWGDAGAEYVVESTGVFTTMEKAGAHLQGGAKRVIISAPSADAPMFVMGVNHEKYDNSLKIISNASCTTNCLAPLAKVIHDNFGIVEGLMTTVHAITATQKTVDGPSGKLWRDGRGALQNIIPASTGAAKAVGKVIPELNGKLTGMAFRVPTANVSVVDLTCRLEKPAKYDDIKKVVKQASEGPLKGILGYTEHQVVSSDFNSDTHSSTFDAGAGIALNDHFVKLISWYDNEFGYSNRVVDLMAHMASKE

T1: microsomal glutathione S transferase (human (endogenous in brain prefrontal cortex)) (UniProt P10620)
T1 sequence: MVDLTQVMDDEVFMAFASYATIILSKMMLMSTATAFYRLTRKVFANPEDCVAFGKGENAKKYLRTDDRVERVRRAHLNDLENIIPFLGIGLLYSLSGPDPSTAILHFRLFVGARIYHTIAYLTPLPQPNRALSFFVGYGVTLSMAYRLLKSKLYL


Key:
[1] = target: MAP1B (human (endogenous in brain prefrontal cortex)) (UniProt P46821); assay: native gel or EMSA; 2D BN/SDS-PAGE: complexes of human brain prefrontal cortex (AD and age-matched control) solubilised in dodecyl-maltoside, separated on 4-16% blue-native gel at 4 °C, resolved on 7.5-12.5% SDS-PAGE in the second dimension; spots identified by nano LC-MS/MS
[2] = target: T1, microsomal glutathione S transferase (human (endogenous in brain prefrontal cortex)); assay: as above

binding [1] | binding [2] | Molecule
binds |  | Glyceraldehyde-3-PO4 dehydrogenase (from UniProt P04406 1-335)
 | binds | immunoglobulin super family member 8 (protein, UniProt Q969P0 28-613) REVLVPEGPLYRVAGTAVSISCNVTGYEGPAQQNFEWFLYRPEAPDTALGIVSTKDTQFSYAVFKSRVVAGEVQVQRLQGDAVVLKIARLQAQDAGIYECHTPSTDTRYLGSYSGKVELRVLPDVLQVSAAPPGPRGRQAPTSPPRMTVHEGQELALGCLARTSTQKHTHLAVSFGRSVPEAPVGRSTLQEVVGIRSDLAVEAGAPYAERLAAGELRLGKEGTDRYRMVVGGAQAGDAGTYHCTAAEWIQDPDGSWAQIAEKRAVLAHVDVQTLSSQLAVTVGPGERRIGPGEPLELLCNVSGALPPAGRHAAYSVGWEMAPAGAPGPGRLVAQLDTEGVGSLGPGYEGRHIAMEKVASRTYRLRLEAARPGDAGTYRCLAKAYVRGSGTRLREAASARSRPLPVHVREEGVVLEAVAWLAGGTVYRGETASLLCNISVRGGPPGLRLAASWWVERPEDGELSSVPAQLVGGVGQDGVAELGVRPGGGPVSVELVGPRSHRLRLHSLGPEDEGVYHCAPSAWVQHADYSWYQAGSARSGPVTVYPYMHALDTLFVPLLVGTGVALVTGATVLGTITCCFMKRLRKR
